In experiment [1] the target is MDM2 protein in lung tissue of mice with pulmonary fibrosis (mouse) (UniProt P23804). The experiment in a line: co-immunoprecipitation with MDM2 antibody from mouse lung tissue lysate.
Experiment [2] has the same target. The experiment in a line: co-immunoprecipitation with MDM2 antibody from mouse lung tissue lysate, Western blot. (Immunoblotting shows a protein as a band on a membrane.)

Chains of the proteins cited; added tags and fusions are not shown.
UniProt P23804: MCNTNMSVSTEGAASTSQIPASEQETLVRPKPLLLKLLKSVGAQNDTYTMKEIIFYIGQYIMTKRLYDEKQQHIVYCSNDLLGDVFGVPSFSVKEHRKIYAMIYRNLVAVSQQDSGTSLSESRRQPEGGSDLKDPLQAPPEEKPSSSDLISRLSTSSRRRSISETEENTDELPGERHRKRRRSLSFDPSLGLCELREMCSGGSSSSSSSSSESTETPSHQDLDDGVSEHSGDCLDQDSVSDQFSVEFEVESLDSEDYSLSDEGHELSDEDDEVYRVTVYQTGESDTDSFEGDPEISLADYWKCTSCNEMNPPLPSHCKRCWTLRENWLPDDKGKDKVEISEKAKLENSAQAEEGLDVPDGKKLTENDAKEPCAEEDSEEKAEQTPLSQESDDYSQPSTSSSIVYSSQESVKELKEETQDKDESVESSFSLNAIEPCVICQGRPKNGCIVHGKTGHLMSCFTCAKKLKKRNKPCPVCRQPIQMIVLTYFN

Results are given in words; binding and its absence hold for the method and conditions named. Binding seen in cells or lysates may run through a third protein. Some entries that bind do so weakly or less than the wild type.

B1: TRB3 protein in lung tissue of mice with pulmonary fibrosis (protein, mouse, UniProt Q8K4K2 1-354, looked up)
chain: MRATPLAASADVSCRKKPLEFDDNIDAKCPVLKRVRDEPEPGPLPSLLPPSPPPASDLSPAVAPATRLGPYILLEREQGSCSYRALHCPTGTEYTCKVYPASEAQAVLAPYARLPTHQHVARPTEVLLGSRLLYIFFTKTHGDLHSLVRSRRGIPESEAAGLFRQMASAVAHCHKHGLVLRDLKLRRFVFSNCERTKLVLENLEDACVMTGSDDSLWDKHACPAYVGPEILSSRPSYSGKAADVWSLGVALFTMLAGRYPFHDSEPVLLFGKIRRGTFALPEGLSAPARCLIRCLLRKEPSERLVALGILLHPWLREDHGRVSPPQSDRREMDQVVPDGPQLEEAEEGEVGLYG
Regarding B1, the binding result in experiment [1] and in experiment [2] was “binds” in each case.

The values are drawn from US20210179680A1, “POLYPEPTIDE, DERIVATIVES THEREOF, AND APPLICATION THEREOF IN PREPARATION OF DRUGS HAVING RESISTANCE TO PULMONARY FIBROSIS” (priority 2016, published 2021).
